Among the data in paper doi:10.1101/2021.05.26.445723 (bioRxiv, 2021) are binding values, retold here.

The chains behind the UniProt entries cited, without tags or fusion partners. Where a name states a change or a piece, a line headed by the entry shows the natural chain unless it says otherwise.
UniProt P06701: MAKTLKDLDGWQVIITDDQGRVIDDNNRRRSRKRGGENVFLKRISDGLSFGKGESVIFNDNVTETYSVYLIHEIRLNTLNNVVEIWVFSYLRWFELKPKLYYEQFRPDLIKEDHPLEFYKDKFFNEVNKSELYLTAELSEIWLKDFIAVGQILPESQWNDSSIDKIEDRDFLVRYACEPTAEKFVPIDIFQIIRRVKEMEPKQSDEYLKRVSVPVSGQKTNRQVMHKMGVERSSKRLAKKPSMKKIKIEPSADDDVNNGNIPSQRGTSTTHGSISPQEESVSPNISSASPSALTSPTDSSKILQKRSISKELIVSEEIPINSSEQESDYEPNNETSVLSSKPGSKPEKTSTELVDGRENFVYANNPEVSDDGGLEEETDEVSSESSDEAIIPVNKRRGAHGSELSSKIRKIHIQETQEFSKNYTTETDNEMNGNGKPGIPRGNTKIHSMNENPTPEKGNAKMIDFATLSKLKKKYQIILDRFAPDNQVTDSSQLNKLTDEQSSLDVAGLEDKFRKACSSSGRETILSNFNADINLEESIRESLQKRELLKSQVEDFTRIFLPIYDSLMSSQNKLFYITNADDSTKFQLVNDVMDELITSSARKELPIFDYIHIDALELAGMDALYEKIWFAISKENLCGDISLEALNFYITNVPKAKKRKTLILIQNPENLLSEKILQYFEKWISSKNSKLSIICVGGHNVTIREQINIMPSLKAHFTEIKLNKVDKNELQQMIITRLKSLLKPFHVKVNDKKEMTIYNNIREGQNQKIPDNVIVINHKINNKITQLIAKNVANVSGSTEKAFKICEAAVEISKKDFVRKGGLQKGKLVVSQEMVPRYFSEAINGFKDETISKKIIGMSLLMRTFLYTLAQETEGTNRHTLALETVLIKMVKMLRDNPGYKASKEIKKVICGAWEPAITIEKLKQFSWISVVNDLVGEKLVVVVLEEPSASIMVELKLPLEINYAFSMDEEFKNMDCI

These are yes or no findings as the source states them, for the method shown. For some of these results: Binding seen in cells or lysates may run through a third protein. Some binding calls cover weakened binding; strength is not graded here. Sequences can lack the tags named with a protein.

For assay [1], the target named is T1, Sae2-GFP (S. cerevisiae) (UniProt P46946).
T1 sequence: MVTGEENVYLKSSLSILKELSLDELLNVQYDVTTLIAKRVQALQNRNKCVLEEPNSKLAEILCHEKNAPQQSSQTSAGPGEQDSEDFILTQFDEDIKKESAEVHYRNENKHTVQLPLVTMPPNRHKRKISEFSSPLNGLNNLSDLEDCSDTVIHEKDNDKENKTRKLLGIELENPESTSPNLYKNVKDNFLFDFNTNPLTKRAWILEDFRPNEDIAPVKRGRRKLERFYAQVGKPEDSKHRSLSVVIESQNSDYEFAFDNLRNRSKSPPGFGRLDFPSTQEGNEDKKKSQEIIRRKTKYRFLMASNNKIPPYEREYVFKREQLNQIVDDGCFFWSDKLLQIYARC
Put plainly: co-IP.

Assay [2] addresses T2, GAL4-BD-Sae2^C (S. cerevisiae) (UniProt P46946).
T2 sequence: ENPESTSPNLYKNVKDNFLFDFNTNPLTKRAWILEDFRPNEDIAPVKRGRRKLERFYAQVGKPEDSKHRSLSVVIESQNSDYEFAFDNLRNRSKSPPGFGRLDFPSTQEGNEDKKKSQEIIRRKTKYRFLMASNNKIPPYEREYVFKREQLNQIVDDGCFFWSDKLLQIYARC
Kind of assay: two-hybrid.

The target of assay [3] is T3, LexA-BD-SAE2^C (S. cerevisiae) (UniProt P46946).
T3 sequence: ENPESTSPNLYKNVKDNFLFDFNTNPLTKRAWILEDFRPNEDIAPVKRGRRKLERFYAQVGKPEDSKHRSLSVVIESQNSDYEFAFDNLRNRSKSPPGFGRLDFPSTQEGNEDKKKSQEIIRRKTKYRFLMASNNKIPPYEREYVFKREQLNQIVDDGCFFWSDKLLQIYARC
Put plainly: two-hybrid.

The target of assay [4] is GAL4-BD-Sir3 (full length) (S. cerevisiae) (UniProt P06701). Put plainly: two-hybrid.

Turning to Sir3 (from UniProt P06701 1-978), the binding entry in assay [1] is “binds”. With “GAL4-AD-Sir3^SaID (from UniProt P06701 531-723) (domain or fragment)”, in assay [2], the binding result is “binds”. In the case of “GAD-SIR3^464-728 (from UniProt P06701 464-728) (domain or fragment)”, the binding result in assay [3] is given as “binds”.

B1: GAL4-AD-Sae2 (full length) (protein, UniProt P46946 1-345)
chain: MVTGEENVYLKSSLSILKELSLDELLNVQYDVTTLIAKRVQALQNRNKCVLEEPNSKLAEILCHEKNAPQQSSQTSAGPGEQDSEDFILTQFDEDIKKESAEVHYRNENKHTVQLPLVTMPPNRHKRKISEFSSPLNGLNNLSDLEDCSDTVIHEKDNDKENKTRKLLGIELENPESTSPNLYKNVKDNFLFDFNTNPLTKRAWILEDFRPNEDIAPVKRGRRKLERFYAQVGKPEDSKHRSLSVVIESQNSDYEFAFDNLRNRSKSPPGFGRLDFPSTQEGNEDKKKSQEIIRRKTKYRFLMASNNKIPPYEREYVFKREQLNQIVDDGCFFWSDKLLQIYARC
As to B1, the binding result in assay [4] is recorded as “binds”.
